Consider 3 molecules from paper PMC8968030.

The chains behind the UniProt entries cited, without tags or fusion partners.
UniProt Q8CIG8: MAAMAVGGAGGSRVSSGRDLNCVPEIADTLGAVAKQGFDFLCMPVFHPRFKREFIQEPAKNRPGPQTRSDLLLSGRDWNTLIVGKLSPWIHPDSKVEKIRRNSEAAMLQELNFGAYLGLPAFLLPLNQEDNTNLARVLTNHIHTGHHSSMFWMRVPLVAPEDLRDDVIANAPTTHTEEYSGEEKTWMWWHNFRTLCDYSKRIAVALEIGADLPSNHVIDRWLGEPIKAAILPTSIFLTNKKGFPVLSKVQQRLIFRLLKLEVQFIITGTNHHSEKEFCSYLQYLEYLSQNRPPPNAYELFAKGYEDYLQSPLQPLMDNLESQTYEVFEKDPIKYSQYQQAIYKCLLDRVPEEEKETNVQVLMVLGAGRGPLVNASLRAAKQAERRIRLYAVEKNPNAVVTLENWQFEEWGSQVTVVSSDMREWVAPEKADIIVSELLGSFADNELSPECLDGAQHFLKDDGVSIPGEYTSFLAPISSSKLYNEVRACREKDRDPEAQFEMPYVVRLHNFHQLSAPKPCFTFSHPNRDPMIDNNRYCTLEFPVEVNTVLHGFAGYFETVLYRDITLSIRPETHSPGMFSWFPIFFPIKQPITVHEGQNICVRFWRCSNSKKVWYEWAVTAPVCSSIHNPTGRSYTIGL
UniProt Q9WV92: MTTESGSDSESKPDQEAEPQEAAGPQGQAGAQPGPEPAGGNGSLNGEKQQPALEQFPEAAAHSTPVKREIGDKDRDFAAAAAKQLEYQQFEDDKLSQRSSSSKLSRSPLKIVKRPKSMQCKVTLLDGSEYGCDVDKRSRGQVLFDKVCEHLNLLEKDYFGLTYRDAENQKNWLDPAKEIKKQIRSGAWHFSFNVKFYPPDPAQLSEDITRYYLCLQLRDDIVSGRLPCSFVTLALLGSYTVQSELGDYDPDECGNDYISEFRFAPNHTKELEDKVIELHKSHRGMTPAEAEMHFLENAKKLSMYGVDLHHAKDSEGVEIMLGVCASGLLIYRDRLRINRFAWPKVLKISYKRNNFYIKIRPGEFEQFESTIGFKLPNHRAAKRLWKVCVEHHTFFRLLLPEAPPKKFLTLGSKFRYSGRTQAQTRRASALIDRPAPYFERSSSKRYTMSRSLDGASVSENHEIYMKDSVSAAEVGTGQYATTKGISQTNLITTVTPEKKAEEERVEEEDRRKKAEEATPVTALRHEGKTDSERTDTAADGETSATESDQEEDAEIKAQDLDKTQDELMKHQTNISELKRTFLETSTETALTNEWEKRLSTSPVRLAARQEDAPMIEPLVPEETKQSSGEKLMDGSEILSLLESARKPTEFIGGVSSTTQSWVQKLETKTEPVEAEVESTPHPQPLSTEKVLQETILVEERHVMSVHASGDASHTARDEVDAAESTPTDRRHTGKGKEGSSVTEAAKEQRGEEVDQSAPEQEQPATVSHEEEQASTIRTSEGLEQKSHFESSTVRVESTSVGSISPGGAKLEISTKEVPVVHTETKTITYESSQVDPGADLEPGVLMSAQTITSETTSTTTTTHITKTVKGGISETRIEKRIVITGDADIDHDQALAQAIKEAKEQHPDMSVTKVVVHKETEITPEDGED

Results are given in words; binding and its absence hold for the method and conditions named. Binding seen in cells or lysates may run through a third protein. Here binding means that the protein was enriched with, or labelled near, the bait; the list need not be complete.

This test has as its target protein arginine methyl transferase PRMT5 (mouse (endogenous in primary mouse OPCs)) (UniProt Q8CIG8). The experiment in a line: affinity purification with mass spectrometry; IP of endogenous PRMT5 with PRMT5 antibody (Abcam ab109451) against normal IgG control, protein-A beads, overnight at 4°C, from NP-40 lysates (50 mM HEPES pH 7.4, 150 mM NaCl, 1% NP-40) of primary mouse oligodendrocyte progenitors kept with mitogens or without mitogens with T3 for 48 h; in-gel tryptic digestion and LC-MS/MS; hits: at least two unique peptides in the PRMT5 IP and none in IgG.

Turning to “Band 4.1-like protein 3 (from UniProt Q9WV92 1-929)”, the binding result is listed as “binds”.

B1: zinc-finger protein 326 (protein, UniProt O88291 1-580)
chain: MDFEDDYVHSTCRGAYQDFNGMDRDYGPGSYGGLDRDYGHGSYGGQRSMDSYLNQSYGMDNHSGGGGGSRFGPYESYDSRSSLGGRDLYRSGYGFNEPEQTRFGGSYGGRFESSYRNSLDSFGGRNQGGSSWEAPYSRSKLRPGFMEDRGRENYSSYSSFSSPHMKPAPVGSRGRGTPAYPESTFGSRSYDAFGGPSTGRGRGRGHMGDFGSFHRPGIIVDYQNKPANVTIATARGIKRKMMQIFIKPGGAFIKKPKLAKPMDKMNLSKSPTKTDPKNEEEEKRRIEARREKQRRRREKNSEKYGDGYRMAFTCSFCKFRTFEEKDIELHLESSSHQETLDHIQKQTKFDKVVMEFLHECMVNKFKKASIRKQQTLNHPEAYKIIEKDIMEGVTADDHMMKVETVHCSACSVYIPALHSSVQLHLKSPDHSKGKQAYKEQIKRESVLTATSILNNPIVKARYERFVKGENPFEIQDHPQDQQIEGDEEDEEKIDEPIEEEEEEEEEEEEEGEEAGSVEEEGDVEGEEGTAEAAAAGEADAVGEAEGAGEAEEAEEEEEEEGTQEFAAQACATEQCEHRQM
For the molecule B1, the binding result is given as “binds”.

B2: TNF receptor-associated factor 4 (protein, UniProt Q61382 1-470)
chain: MPGFDYKFLEKPKRRLLCPLCGKPMREPVQVSTCGHRFCDTCLQEFLSEGVFKCPEDQLPLDYAKIYPDPELEVQVLGLAIRCIHSEEGCRWSGPLRHLQGHLNTCSFNVVPCPNRCPAKLSRRDLPAHLQHDCPKRRLKCEFCGCDFSGEAYESHEGVCPQESVYCENKCGARMMRRLLAQHATSECPKRTQPCAYCTKEFVYDTIQSHQYQCPRLPVPCPNQCGVGTVAREDLPTHLKDSCSTAFVLCPFKESGCKHRCPKLAMGRHVEESVKPHLAMMCALVSRQRQELQELRRELEELSIGSDGVLIWKIGSYGRRLQEAKAKPNLECFSPAFYTHKYGYKLQVSAFLNGNGSGEGTHLSIYIRVLPGAFDNLLEWPFARRVTFSLLDQSDPGLAKPQHVTETFHPDPNWKNFQKPGTWRGSLDESSLGFGYPKFISHQDIRKRNYVRDDAVFIRASVELPRKILS
As for B2, the binding result is reported as “binds”.
